No constants are given. Whether binding was seen depends on the method and setting. Binding can be weak; no strength is given.
Key:
[1] = biological target: KC1^67–91-Flag3-StrepII (Arabidopsis thaliana) (UniProt P92960); assay: pull-down; KC1^67–91-Flag3-StrepII or KAT1^1–63-Flag6-StrepII immobilised on Strep-Tactin resin; one prey at a time in 3-fold excess; overnight at 4°C; SDS-PAGE, Coomassie; both purified
[2] = biological target: KAT1^1–63-Flag6-StrepII (Arabidopsis thaliana) (UniProt Q39128); assay: as above
[3] = biological target: KC1^67–91-Flag3-StrepII (Arabidopsis thaliana) (UniProt P92960); assay: pull-down; channel peptide immobilised on Strep-Tactin resin; SNAREs in binary combinations, fixed 5 μM SYP121^ΔC or VAMP721^ΔC with 0, 0.3-, 1- and 3-fold VAMP721^ΔC or SNAP33; overnight at 4°C; SDS-PAGE, Coomassie; both purified
[4] = biological target: KAT1^1–63-Flag6-StrepII (Arabidopsis thaliana) (UniProt Q39128); assay: as above
[5] = biological target: KC1^67–91-Flag3-StrepII (Arabidopsis thaliana) (UniProt P92960); assay: pull-down; channel peptide immobilised on Strep-Tactin resin, mixed together with SYP121^ΔC, SNAP33 and VAMP721^ΔC; overnight at 4°C; SDS-PAGE, Coomassie; both purified
[6] = biological target: KAT1^1–63-Flag6-StrepII (Arabidopsis thaliana) (UniProt Q39128); assay: as above
[7] = biological target: KC1^67–91-Flag3-StrepII (Arabidopsis thaliana) (UniProt P92960); assay: SEC; KC1^67–91 peptide comixed with SYP121^ΔC, SNAP33 and VAMP721^ΔC at the start of incubation (Combined); Superdex 200 10/300, 50 mM Tris-HCl, 150 mM NaCl, pH 8.0; SDS-PAGE of fractions; both purified
[8] = biological target: KC1^67–91-Flag3-StrepII (Arabidopsis thaliana) (UniProt P92960); assay: pull-down; channel peptide immobilised on Strep-Tactin resin; cognate SNAREs singly, in binary and in tertiary combinations without and with SEC11 at 0.3-, 1- and 3-fold the concentration of SNAREs; overnight at 4°C; SDS-PAGE, Coomassie; both purified
[9] = biological target: KAT1^1–63-Flag6-StrepII (Arabidopsis thaliana) (UniProt Q39128); assay: as above

Amino acid sequences for entries named in this document (tags omitted). A change or cut given only in a name is not applied to a line headed by its entry. Residues count along the entry.
UniProt P92960, residues 67-91: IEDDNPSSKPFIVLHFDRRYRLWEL
UniProt Q39128, residues 1-63: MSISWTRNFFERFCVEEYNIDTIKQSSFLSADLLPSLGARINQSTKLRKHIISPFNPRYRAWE
UniProt Q9ZTW3: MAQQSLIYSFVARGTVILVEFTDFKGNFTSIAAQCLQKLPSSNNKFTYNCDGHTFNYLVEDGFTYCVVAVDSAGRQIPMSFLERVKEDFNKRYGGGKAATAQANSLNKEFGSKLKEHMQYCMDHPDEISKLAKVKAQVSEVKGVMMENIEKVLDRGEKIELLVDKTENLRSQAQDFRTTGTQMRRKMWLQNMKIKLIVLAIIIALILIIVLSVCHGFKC
UniProt Q9ZSD4: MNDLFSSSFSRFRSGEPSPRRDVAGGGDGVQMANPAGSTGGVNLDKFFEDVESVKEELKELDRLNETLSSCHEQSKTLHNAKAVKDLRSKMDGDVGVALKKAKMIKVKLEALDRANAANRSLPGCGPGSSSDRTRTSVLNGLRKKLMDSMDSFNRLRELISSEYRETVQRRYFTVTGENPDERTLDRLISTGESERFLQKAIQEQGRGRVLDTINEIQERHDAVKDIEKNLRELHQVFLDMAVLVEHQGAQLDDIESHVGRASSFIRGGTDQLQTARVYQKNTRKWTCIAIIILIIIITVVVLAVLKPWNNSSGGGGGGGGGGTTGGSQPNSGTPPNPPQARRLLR

Measured: binding

VAMP721^ΔC-Flag-6His (from UniProt Q9ZTW3) (domain or fragment)
binds: [1] | [2] | [3] | [4] | [5] | [6] | [7] | [8] | [9]

SYP121^ΔC-Flag-6His (from UniProt Q9ZSD4) (domain or fragment)
binds: [2] | [4] | [6] | [9]
